Experimental data: US20110243926A1 (published 2011)
Results are given in words; binding and its absence hold for the method and conditions named. Some binding calls cover weakened binding; strength is not graded here.

Target: T1, soluble P-selectin (UniProt P16109 42-771, limits assumed)
T1 sequence (looked up): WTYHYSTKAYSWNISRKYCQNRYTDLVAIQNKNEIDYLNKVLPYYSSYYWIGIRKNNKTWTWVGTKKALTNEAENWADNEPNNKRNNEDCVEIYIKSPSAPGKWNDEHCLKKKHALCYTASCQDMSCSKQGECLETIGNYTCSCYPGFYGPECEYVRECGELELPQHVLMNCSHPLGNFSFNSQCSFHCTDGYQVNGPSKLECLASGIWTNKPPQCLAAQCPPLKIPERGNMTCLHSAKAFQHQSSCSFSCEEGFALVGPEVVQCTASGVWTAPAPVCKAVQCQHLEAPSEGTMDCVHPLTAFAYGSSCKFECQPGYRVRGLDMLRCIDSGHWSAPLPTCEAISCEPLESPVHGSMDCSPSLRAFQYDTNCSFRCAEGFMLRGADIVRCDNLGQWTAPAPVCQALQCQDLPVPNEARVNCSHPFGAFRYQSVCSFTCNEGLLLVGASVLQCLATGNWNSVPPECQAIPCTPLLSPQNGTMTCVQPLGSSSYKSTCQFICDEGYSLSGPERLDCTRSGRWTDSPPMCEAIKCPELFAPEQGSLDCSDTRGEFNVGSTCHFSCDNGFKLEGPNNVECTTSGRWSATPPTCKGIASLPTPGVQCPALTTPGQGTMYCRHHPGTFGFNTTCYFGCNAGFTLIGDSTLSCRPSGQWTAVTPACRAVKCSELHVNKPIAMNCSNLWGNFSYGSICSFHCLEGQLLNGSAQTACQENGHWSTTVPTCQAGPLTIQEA
Assay: SPR (Biacore 3000), soluble P-selectin against soluble E-selectin surfaces

binding: binds
B1: humanized G1 antibody design labeled "aggressive" (G1aggr) (antibody, V domains shown)
VH: QVQLVQSGAEVKKPGASVKVSCKVSGYTFTSYDINWVRQAPGKGLEWMGWIYPGDGSIKYNEKFKGRVTMTVDKSTDTAYMELSSLRSEDTAVYYCARRGEYGNYEGAMDYWGQGTLVTVSS
VL: DIQMTQSPSSLSASVGDRVTITCKASQSVDYDGHSYMNWYQQKPGKAPKLLIYAASNLESGVPSRFSGSGSGTDFTLTISSLQPEDFATYYCQQSDENPLTFGGGTKVEIK
notes: also called humanized G1aggr; humanized antibody G1aggr
